Drawing on paper PMC6214026 (International Journal of Molecular Sciences, 2018), this text covers conjugation yield and step yield for 11 substances.

A short description of the first data set: general procedure: solution-phase peptide synthesis. To be noted: conjugation step.
With “1,11,16,3-tetra-tert-butyl 26-((S)-4-ethyl-3,14-dioxo-3,4,12,14-tetrahydro-1H-pyrano[3′,4′:6,7]indolizino[1,2-b]quinolin-4-yl) (3S,6S,11S,16S,21S)-6-(2-(tert-butoxy)-2-oxoethyl)-21-((tert-butoxycarbonyl)amino)-5,8,13,18,22-pentaoxo-4,7,12,17,23-pentaazahexacosane-1,3,11,16,26-pentacarboxylate”, the conjugation yield was found to be 49.3%.

In the case of “1,11,16,3-tetra-tert-butyl 28-((S)-4-ethyl-3,14-dioxo-3,4,12,14-tetrahydro-1H-pyrano[3′,4′:6,7]indolizino[1,2-b]quinolin-4-yl) (3S,6S,11S,16S,21S)-6-(2-(tert-butoxy)-2-oxoethyl)-21-((tert-butoxycarbonyl)amino)-5,8,13,18,22-pentaoxo-4,7,12,17,23-pentaazaoctacosane-1,3,11,16,28-pentacarboxylate”, the conjugation yield worked out at 45.2%.

Regarding “1,11,16,3-tetra-tert-butyl 34-((S)-4-ethyl-3,14-dioxo-3,4,12,14-tetrahydro-1H-pyrano[3′,4′:6,7]indolizino[1,2-b]quinolin-4-yl) (3S,6S,11S,16S,21S)-6-(2-(tert-butoxy)-2-oxoethyl)-21-((tert-butoxycarbonyl)amino)-5,8,13,18,22-pentaoxo-4,7,12,17,23-pentaazatetratriacontane-1,3,11,16,34-pentacarboxylate”, the conjugation yield was determined as 42.0%.

As to “14,22,24,9-tetra-tert-butyl 1-((S)-4-ethyl-3,14-dioxo-3,4,12,14-tetrahydro-1H-pyrano[3′,4′:6,7]indolizino[1,2-b]quinolin-4-yl) (4S,9S,14S,19S,22S)-19-(2-(tert-butoxy)-2-oxoethyl)-4-((tert-butoxycarbonyl)amino)-3,7,12,17,20-pentaoxo-2,8,13,18,21-pentaazatetracosane-1,9,14,22,24-pentacarboxylate”, the conjugation yield is given as 30.0%.

The same data set, now with this note: coupling step.
In turn, “6-benzyl 11,16,24,26-tetra-tert-butyl (6S,11S,16S,21S,24S)-21-(2-(tert-butoxy)-2-oxoethyl)-2,2-dimethyl-4,9,14,19,22-pentaoxo-3-oxa-5,10,15,20,23-pentaazahexacosane-6,11,16,24,26-pentacarboxylate” yielded a step yield of 83.6%.

For the substance “tetra-tert-butyl (5S,10S,15S,18S)-15-(2-(tert-butoxy)-2-oxoethyl)-1-(9H-fluoren-9-yl)-3,8,13,16-tetraoxo-2-oxa-4,9,14,17-tetraazaicosane-5,10,18,20-tetracarboxylate”, the step yield came out at 86.7%.

Still in this data set, the particulars now being: late stage modification step.
Take “(3S,6S,11S,16S,21S)-21-amino-6-(carboxymethyl)-27-(((S)-4-ethyl-3,14-dioxo-3,4,12,14-tetrahydro-1H-pyrano[3′,4′:6,7]indolizino[1,2-b]quinolin-4-yl)oxy)-5,8,13,18,22,27-hexaoxo-4,7,12,17,23-pentaazaheptacosane-1,3,11,16-tetracarboxylic acid”: the step yield is reported as 19.9%.

In turn, “(3S,6S,11S,16S,21S)-21-amino-6-(carboxymethyl)-29-(((S)-4-ethyl-3,14-dioxo-3,4,12,14-tetrahydro-1H-pyrano[3′,4′:6,7]indolizino[1,2-b]quinolin-4-yl)oxy)-5,8,13,18,22,29-hexaoxo-4,7,12,17,23-pentaazanonacosane-1,3,11,16-tetracarboxylic acid” gave a step yield of 25.0%.

Turning to “(3S,6S,11S,16S,21S)-21-amino-6-(carboxymethyl)-35-(((S)-4-ethyl-3,14-dioxo-3,4,12,14-tetrahydro-1H-pyrano[3′,4′:6,7]indolizino[1,2-b]quinolin-4-yl)oxy)-5,8,13,18,22,35-hexaoxo-4,7,12,17,23-pentaazapentatriacontane-1,3,11,16-tetracarboxylic acid”, the step yield was 24.8%.

“((S)-4-((S)-4-((S)-4-amino-5-((2-(((S)-4-ethyl-3,14-dioxo-3,4,12,14-tetrahydro-1H-pyrano[3′,4′:6,7]indolizino[1,2-b]quinolin-4-yl)oxy)-2-oxoethyl)amino)-5-oxopentanamido)-4-carboxybutanamido)-4-carboxybutanoyl)-L-aspartyl-L-glutamic acid” displayed a step yield of 19.9%.

For the substance “di-tert-butyl ((S)-2-((S)-4-((S)-4-amino-5-(tert-butoxy)-5-oxopentanamido)-5-(tert-butoxy)-5-oxopentanamido)-4-(tert-butoxy)-4-oxobutanoyl)-L-glutamate”, the step yield was determined as 87.3%.
